Entries after “also recorded” stand apart in the source; their conditions may differ.
Legend:
[1] = target: T1, OAT3 (Homo sapiens, UniProt Q8TCC7); conditions: read-out: IC50 as inhibitor of OAT3; cited from earlier work
T1 sequence (Q8TCC7 1-542): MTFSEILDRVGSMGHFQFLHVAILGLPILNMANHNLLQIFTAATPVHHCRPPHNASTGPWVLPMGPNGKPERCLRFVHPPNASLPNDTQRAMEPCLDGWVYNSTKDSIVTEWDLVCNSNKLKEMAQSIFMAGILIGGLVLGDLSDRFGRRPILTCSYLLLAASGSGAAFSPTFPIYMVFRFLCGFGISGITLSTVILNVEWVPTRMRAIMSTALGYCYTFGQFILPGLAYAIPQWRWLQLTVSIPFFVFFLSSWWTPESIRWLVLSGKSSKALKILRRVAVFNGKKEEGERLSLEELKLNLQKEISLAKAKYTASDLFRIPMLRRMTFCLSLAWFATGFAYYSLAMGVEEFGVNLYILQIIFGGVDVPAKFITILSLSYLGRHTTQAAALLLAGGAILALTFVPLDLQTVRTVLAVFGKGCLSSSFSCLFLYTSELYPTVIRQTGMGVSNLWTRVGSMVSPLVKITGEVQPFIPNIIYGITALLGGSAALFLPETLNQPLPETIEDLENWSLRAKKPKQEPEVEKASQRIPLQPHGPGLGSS

[2] = target: T1, OAT3; conditions: 10 μM catalposide, HEK293-OAT3
[3] = target: T1, OAT3; experiment: in vitro; conditions: HEK293 cells transiently expressing OAT3, probe catalposide 10 μM

Which IC50 [1] does the source give for `NS(=O)(=O)c1cc(C(=O)O)c(NCc2ccco2)cc1Cl` [furosemide] here?
The IC50 was 51.1 ± 10.5 µM.

What about the “Effect on OAT3-mediated catalposide uptake (words)” value [2] of the same molecule?
Its value is “decreased to basal levels; also recorded: inhibited OAT3-mediated catalposide transport in a concentration-dependent manner”.

What about the inhibition at 10 min, 100 μM [3] of the same molecule?
Its inhibition at 10 min, 100 μM is 98.3%.

Source: PMC4310350 (Drug Design, Development and Therapy, 2015)
